Source: PubChem BioAssay AID1053208 (Peter MacCallum Cancer Centre, 2014)
Here is a random part of about 17,000 deposited reagents. 788 of all reagents (4.7%) count as active. 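Calls rest on z-score classes alone; an extra cut-off of viability at most 70% of control was not applied to them.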 Reagents against one gene are numbered here. Some reagents were tested in more than one well and are listed for each. Reagent sequences are not shown.

Assay: 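Genes whose silencing cuts survival of bone tumour cells only with doxorubicin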 (primary screen)
Cells: mouse osteosarcoma cells, early-passage culture from an engineered mouse model of fibroblastic bone tumour
Knock-down reagent: siRNA pool against mouse genes, 40 nM
Time to read-out: about 120 h (48 h before drug, then 72 h with drug)
Treatment: doxorubicin 100 nM for 72 h, roughly 30-40% inhibitory dose
Detection: 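Viability read as ATP luminescence after 72 h of 100 nM doxorubicin or none, duplicate wells averaged, scaled to non-targeting siRNA, then expressed as robust z-scores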
Reading the numbers: viability z-score with doxorubicin and doxorubicin viability vs non-targeting: higher = more viable cells under doxorubicin; viability z-score without drug: higher = more viable cells with knock-down alone; z-score of drug to no-drug ratio: higher = less drug sensitisation by knock-down
Hit rule: 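Called active if knock-down leaves viability unchanged without drug (z within -2 to 2) but lowers it with doxorubicin (z at or under -2)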

The first 2 entries as a preview:
| gene symbol | reagent | combined z-score class | viability z-score with doxorubicin | viability z-score without drug | z-score of drug to no-drug ratio | doxorubicin viability vs non-targeting | activity call |
| --- | --- | --- | --- | --- | --- | --- | --- |
| Grk1 | 1 | no change with or without drug | 1.57 | 0 | 1.8 | 1.08 | inactive |
| Grk1 | 1 | no change with or without drug | -0.67 | -1.52 | 0.45 | 0.88 | inactive |

The listing, from the first entry:
| gene symbol | reagent | combined z-score class | viability z-score with doxorubicin | viability z-score without drug | z-score of drug to no-drug ratio | doxorubicin viability vs non-targeting | activity call |
| --- | --- | --- | --- | --- | --- | --- | --- |
| Grk1 | 1 | no change with or without drug | 1.57 | 0 | 1.8 | 1.08 | inactive |
| Grk1 | 1 | no change with or without drug | -0.67 | -1.52 | 0.45 | 0.88 | inactive |
| Zfyve1 | 1 | no change with or without drug | -0.67 | -0.51 | -0.22 | 0.88 | inactive |
| Fabp5 | 1 | no change with or without drug | 0.9 | 0.17 | 0.9 | 1.02 | inactive |
| Trim67 | 1 | no change with or without drug | -1.01 | -0.34 | -0.79 | 0.85 | inactive |
| Cyp7a1 | 1 | no change with or without drug | 1.24 | 1.35 | 0.45 | 1.05 | inactive |
| Pld2 | 1 | no change with or without drug | -0.79 | -0.17 | -0.56 | 0.87 | inactive |
| Actrt2 | 1 | no change with or without drug | 0.9 | -0.17 | 1.24 | 1.02 | inactive |
| Tff2 | 1 | no change with or without drug | 1.69 | 0.67 | 1.35 | 1.09 | inactive |
| Iqcf4 | 1 | no change with or without drug | 0.67 | 1.52 | -0.22 | 1 | inactive |
| Or2w6 | 1 | no change with or without drug | 1.01 | 0.17 | 1.01 | 1.03 | inactive |
| Zfp60 | 1 | high cell count without drug only | 0.22 | 2.36 | -1.12 | 0.96 | inactive |
| Zfp60 | 2 | no change with or without drug | 1.12 | 1.69 | 0.11 | 1.04 | inactive |
| Dusp16 | 1 | no change with or without drug | 0.22 | 0.17 | 0.22 | 0.96 | inactive |
| Slc16a8 | 1 | low cell count without drug only | -1.12 | -2.19 | 0.45 | 0.84 | inactive |
| Stra6 | 1 | no change with or without drug | 1.57 | -0.84 | 2.47 | 1.08 | inactive |
| Or9g10 | 1 | no change with or without drug | -0.45 | -0.51 | 0 | 0.9 | inactive |
| Trdmt1 | 1 | no change with or without drug | 1.12 | -0.34 | 1.57 | 1.04 | inactive |
| Nipa2 | 1 | no change with or without drug | 0.11 | -0.17 | 0.34 | 0.95 | inactive |
| Rint1 | 1 | no change with or without drug | 0.11 | -1.18 | 1.12 | 0.95 | inactive |
| Fcgr2b | 1 | no change with or without drug | -0.22 | 1.52 | -1.12 | 0.92 | inactive |
| Dipk1a | 1 | no change with or without drug | 0.67 | 0.84 | 0.22 | 1 | inactive |
| Zfp623 | 1 | high cell count without drug only | 0.56 | 2.19 | -0.67 | 0.99 | inactive |
| Mtss1 | 1 | no change with or without drug | 1.35 | 0.51 | 1.12 | 1.06 | inactive |
| Tyrobp | 1 | low cell count with doxorubicin only | -2.02 | -0.84 | -1.57 | 0.76 | active |
| Zp2 | 1 | no change with or without drug | 0 | -0.51 | 0.45 | 0.94 | inactive |
| Atp6v0c | 1 | no change with or without drug | 0.22 | -1.18 | 1.24 | 0.96 | inactive |
| Cyp24a1 | 1 | no change with or without drug | 0.11 | 1.18 | -0.56 | 0.95 | inactive |
| Fam20b | 1 | no change with or without drug | 0 | 0.67 | -0.34 | 0.94 | inactive |
| Cetn4 | 1 | no change with or without drug | -0.22 | 0.84 | -0.67 | 0.92 | inactive |
| Hadh | 1 | no change with or without drug | 0.45 | -1.01 | 1.35 | 0.98 | inactive |
| Tmprss11d | 1 | no change with or without drug | 1.12 | 0.17 | 1.12 | 1.04 | inactive |
| Zscan2 | 1 | no change with or without drug | -0.56 | 1.18 | -1.24 | 0.89 | inactive |
| Ikbke | 1 | high cell count with doxorubicin only | 2.59 | 1.01 | 2.02 | 1.17 | inactive |
| Spata32 | 1 | no change with or without drug | 0.45 | -1.35 | 1.69 | 0.98 | inactive |
| Tes | 1 | no change with or without drug | -0.67 | 0.84 | -1.12 | 0.88 | inactive |
| 6430548M08Rik | 1 | no change with or without drug | 1.24 | 1.52 | 0.34 | 1.05 | inactive |
| Hcfc1 | 1 | no change with or without drug | 1.91 | 0.17 | 2.02 | 1.11 | inactive |
| Rnf111 | 1 | low cell count with doxorubicin only | -2.25 | -0.34 | -2.02 | 0.74 | active |
| Or51b17 | 1 | no change with or without drug | 0.79 | 1.01 | 0.22 | 1.01 | inactive |
| Npy2r | 1 | no change with or without drug | -0.22 | -0.67 | 0.34 | 0.92 | inactive |
| Arf4 | 1 | no change with or without drug | -0.67 | -0.51 | -0.22 | 0.88 | inactive |
| Mdh2 | 1 | no change with or without drug | 1.69 | 0.84 | 1.24 | 1.09 | inactive |
| Ywhaq | 1 | no change with or without drug | -0.9 | 0.51 | -1.12 | 0.86 | inactive |
| Cdk5 | 1 | no change with or without drug | 1.12 | -0.67 | 1.8 | 1.04 | inactive |
| Kctd11 | 1 | low cell count with doxorubicin only | -2.02 | 0.34 | -2.25 | 0.76 | active |
| Hexim1 | 1 | low cell count with doxorubicin only | -2.7 | -0.34 | -2.59 | 0.7 | active |
| Rtbdn | 1 | no change with or without drug | -0.67 | -1.35 | 0.34 | 0.88 | inactive |
| Pou3f4 | 1 | high cell count without drug only | 1.8 | 2.36 | 0.34 | 1.1 | inactive |
| Sspn | 1 | no change with or without drug | -0.22 | -1.52 | 1.01 | 0.92 | inactive |
